Results are given in words; binding and its absence hold for the method and conditions named. In cells and extracts the contact can be indirect. Sequences can lack the tags named with a protein.

The assay addresses VN alone (N-terminal fragment of Venus). Nature of the assay: split reporter; Venus BiFC in HEK 293 cells co-transfected with equimolar amounts of the VN and VC plasmids; fluorescence seen 24 or 48 h after transfection.

B1: Sph1-VC (synphilin-1 fused in front of the C-terminal fragment of Venus) (protein, UniProt Q9Y6H5 1-919)
chain: MEAPEYLDLDEIDFSDDISYSVTSLKTIPELCRRCDTQNEDRSVSSSSWNCGISTLITNTQKPTGIADVYSKFRPVKRVSPLKHQPETLENNESDDQKNQKVVEYQKGGESDLGPQPQELGPGDGVGGPPGKSSEPSTSLGELEHYDLDMDEILDVPYIKSSQQLASFTKVTSEKRILGLCTTINGLSGKACSTGSSESSSSNMAPFCVLSPVKSPHLRKASAVIHDQHKLSTEETEISPPLVKCGSAYEPENQSKDFLNKTFSDPHGRKVEKTTPDCQLRAFHLQSSAAESKPEEQVSGLNRTSSQGPEERSEYLKKVKSILNIVKEGQISLLPHLAADNLDKIHDENGNNLLHIAASQGHAECLQHLTSLMGEDCLNERNTEKLTPAGLAIKNGQLECVRWMVSETEAIAELSCSKDFPSLIHYAGCYGQEKILLWLLQFMQEQGISLDEVDQDGNSAVHVASQHGYLGCIQTLVEYGANVTMQNHAGEKPSQSAERQGHTLCSRYLVVVETCMSLASQVVKLTKQLKEQTVERVTLQNQLQQFLEAQKSEGKSLPSSPSSPSSPASRKSQWKSPDADDDSVAKSKPGVQEGIQVLGSLSASSRARPKAKDEDSDKILRQLLGKEISENVCTQEKLSLEFQDAQASSRNSKKIPLEKRELKLARLRQLMQRSLSESDTDSNNSEDPKTTPVRKADRPRPQPIVESVESMDSAESLHLMIKKHTLASGGRRFPFSIKASKSLDGHSPSPTSESSEPDLESQYPGSGSIPPNQPSGDPQQPSPDSTAAQKVATSPKSALKSPSSKRRTSQNLKLRVTFEEPVVQMEQPSLELNGEKDKDKGRTLQRTSTSNESGDQLKRPFGAFRSIMETLSGNQNNNNNYQAANQLKTSTLPLTSLGRKTDAKGNPASSASKGKNKAA
With B1, the binding result was “no binding”.
